Assay: Volume of aqueous solution needed to dissolve clinically relevant dose
Assay type: physicochemical

CN1C(=O)CN=C(c2ccccc2)c2cc(Cl)ccc21 [diazepam]
volume of aqueous solution to dissolve clinically relevant dose: about 5000 ml

From patent publication US5693608A, “Method of administering a biologically active substance” (Bechgaard International Research and Development A/S, priority 1990, dated 1997)
